The text below walks through data of patent US7320890B2 (University of Utah Research Foundation, priority 2001, dated 2008).

The nature of the data set: general procedure: Fmoc solid-phase peptide synthesis; rink amide resin. The conditions noted are these: lipidation step, acetate (TFA replaced by acetic acid).

A value given as a limit tells only on which side of the number the result lay.

With H-HHYRRRHKSRRRLHH-OH (SEQ ID NO:2), the “final purity (method not given)” value is over 93%. Besides, the step yield (with respect to starting amounts of peptide) is listed as over 80%.
